# According to paper PMC5430690:
# By UniProt entry, the sequences of proteins in these tests, tags left out. Residues count along the entry.
# UniProt P02769, 25-607: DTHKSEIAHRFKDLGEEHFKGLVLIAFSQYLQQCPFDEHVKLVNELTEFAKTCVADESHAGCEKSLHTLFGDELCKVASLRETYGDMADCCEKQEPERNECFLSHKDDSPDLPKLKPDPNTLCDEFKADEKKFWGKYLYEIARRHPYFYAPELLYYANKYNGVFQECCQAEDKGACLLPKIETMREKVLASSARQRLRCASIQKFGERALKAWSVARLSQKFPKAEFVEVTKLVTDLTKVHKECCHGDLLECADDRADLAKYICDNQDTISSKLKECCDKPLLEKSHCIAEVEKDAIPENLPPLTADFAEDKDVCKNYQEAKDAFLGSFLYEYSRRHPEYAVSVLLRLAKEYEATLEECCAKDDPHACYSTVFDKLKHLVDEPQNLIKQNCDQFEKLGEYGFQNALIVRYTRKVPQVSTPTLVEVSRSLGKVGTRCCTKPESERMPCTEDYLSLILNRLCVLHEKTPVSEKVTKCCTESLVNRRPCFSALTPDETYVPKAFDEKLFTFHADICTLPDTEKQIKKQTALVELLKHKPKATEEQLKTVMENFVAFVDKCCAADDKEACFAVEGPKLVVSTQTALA
# For some of these results: A negative result means that nothing was seen under these conditions. For some of these results: At least one verdict was read from the data and is not stated in words by the source. For some of these results: For at least one entry, the source does not settle the construct or the ends of the probe.
# Columns and labels:
# [1] = test system: hemoglobin Hb (non-glycated + used as tHb); test: EIS; conditions: Hb on gold electrode, NB up to 200 nM aptamer; 30 min, 0-200 nM aptamer on protein-modified gold electrodes; EIS read-out in 5 mM [Fe(CN)6]3-/4-; commercial protein; single-stranded DNA
# [2] = test system: glycated hemoglobin HbA1c; test: EIS; conditions: HbA1c on gold electrode; 30 min, 0-200 nM aptamer on protein-modified gold electrodes; EIS read-out in 5 mM [Fe(CN)6]3-/4-; commercial protein; single-stranded DNA
# BSA [3] = biological target: BSA (UniProt P02769); test: square wave voltammetry; conditions: aptamer on AuNP electrode; 5' HS-(CH2)6; 30 min, 0-200 nM aptamer on protein-modified gold electrodes; EIS read-out in 5 mM [Fe(CN)6]3-/4-; commercial protein; single-stranded DNA
# [4] = test system: glycated hemoglobin HbA1c; test: square wave voltammetry; conditions: aptamer on AuNP electrode, LOD 0.2 ng/mL; 5' HS-(CH2)6; 30 min, 0-200 nM aptamer on protein-modified gold electrodes; EIS read-out in 5 mM [Fe(CN)6]3-/4-; commercial protein; single-stranded DNA
# [5] = test system: hemoglobin Hb (non-glycated + used as tHb); test: square wave voltammetry; conditions: aptamer on AuNP electrode, LOD 0.34 ng/mL; 5' HS-(CH2)6; 30 min, 0-200 nM aptamer on protein-modified gold electrodes; EIS read-out in 5 mM [Fe(CN)6]3-/4-; commercial protein; single-stranded DNA
# BSA [6] = biological target: BSA (UniProt P02769); test: EIS; conditions: specificity control; 30 min, 0-200 nM aptamer on protein-modified gold electrodes; EIS read-out in 5 mM [Fe(CN)6]3-/4-; commercial protein; single-stranded DNA
Sequence,binding result [1],Kd [2],other results
GGCCACAGCAGCCAGTACACCCACCCACCAGCCCCGTCAACGACCTGAACCTGCCCTGTGTG [G18],no binding,95 nM,
GGGGACACAGCAACACACCCACCCACCAGCCCCAGCATCATGCCCATCCGTCGTGTGTG [thiol-G20],,,binding result (BSA [3]): no binding; binding result [4]: binds
GGACACGGCAAAGGGGTATAGCCTACCGGACCGTGGACATGGAATTGTGTGCTGCGTGG [G23],no binding,303 nM,
ACGCACACCAGAGACAAGTAGCCCCCCAAACGCGGCCACGGAACGCAGCACCTCCATGGC [thiol-G15],,,binding result (BSA [3]): no binding; binding result [5]: binds
CGACACCAGCACACAGACCCGAGACACACGTCAGATCAACAGCGACCGTATCATTGGTTG [G11],no binding,108 nM,
ACGCACACCAGAGACAAGTAGCCCCCCAAACGCGGCCACGGAACGCAGCACCTCCATGGC [G15],,,binding result (BSA [6]): no binding
GGGGACACAGCAACACACCCACCCACCAGCCCCAGCATCATGCCCATCCGTCGTGTGTG [G20],no binding,,binding result (BSA [6]): no binding
